From patent US20250236842A1 come the findings set out here.

No constants are given. Whether binding was seen depends on the method and setting. Some binding calls cover weakened binding; strength is not graded here.

To fix the notation:
B1: scFv-CD8-CD3ZETA-CAR (chimeric antigen receptor targeting EGFRvIII, on iPSC-derived macrophages) (protein)
chain: DIQMTQSPSSLSASVGDRVTITCRASQGIRNNLAWYQQKPGKAPKRLIYAASNLQSGVPSRFTGSGSGTEFTLIVSSLQPEDFATYYCLQHHSYPLTSGGGTKVEIKRTGSTSGSGKPGSGEGSEVQVLESGGGLVQPGGSLRLSCAASGFTFSSYAMSWVRQAPGKGLEWVSAISGSGGSTNYADSVKGRFTISRDNSKNTLYLQMNSLRAEDTAVYYCAGSSGWSEYWGQGTLVTVSSIYIWAPLAGTCGVLLLSLVITLYCRVKFSRSADAPAYKQGQNQLYNELNLGRREEYDVLDKRRGRDPEMGGKPRRKNPQEGLYNELQKDKMAEAYSEIGMKGERRRGKGHDGLYQGLSTATKDTYDALHMQALPPR
B2: scFv-CD8-DELTA-CAR (CAR without an intracellular activation domain, on iPSC-derived macrophages) (protein)
chain: DIQMTQSPSSLSASVGDRVTITCRASQGIRNNLAWYQQKPGKAPKRLIYAASNLQSGVPSRFTGSGSGTEFTLIVSSLQPEDFATYYCLQHHSYPLTSGGGTKVEIKRTGSTSGSGKPGSGEGSEVQVLESGGGLVQPGGSLRLSCAASGFTFSSYAMSWVRQAPGKGLEWVSAISGSGGSTNYADSVKGRFTISRDNSKNTLYLQMNSLRAEDTAVYYCAGSSGWSEYWGQGTLVTVSSIYIWAPLAGTCGVLLLSLVITLYC
B3: scFv-CD8-TIR-CAR (chimeric antigen receptor targeting EGFRvIII, on iPSC-derived macrophages) (protein)
chain: DIQMTQSPSSLSASVGDRVTITCRASQGIRNNLAWYQQKPGKAPKRLIYAASNLQSGVPSRFTGSGSGTEFTLIVSSLQPEDFATYYCLQHHSYPLTSGGGTKVEIKRTGSTSGSGKPGSGEGSEVQVLESGGGLVQPGGSLRLSCAASGFTFSSYAMSWVRQAPGKGLEWVSAISGSGGSTNYADSVKGRFTISRDNSKNTLYLQMNSLRAEDTAVYYCAGSSGWSEYWGQGTLVTVSSIYIWAPLAGTCGVLLLSLVITLYCNIYDAFVIYSSQDEDWVRNELVKNLEEGVPPFQLCLHYRDFIPGVAIAANIIHEGFHKSRKVIVVVSQHFIQSRWCIFEYEIAQTWQFLSSRAGIIFIVLQKVEKTLLRQQVELYRLLSRNTYLEWEDSVLGRHIFWRRLRKALLDG

For this test, the target named is EGFRvIII (GBM-specific membrane protein, over-expressed on U87MG cells) (UniProt P00533). Kind of test: co-culture of CAR-iMAC with U87MG^EGFRvIII cells for 12 h, fluorescence microscopy (cell adhesion).
For the molecule B1, the binding result is “binds”.
For B2, the binding result is listed as “binds”.
Take B3: the binding result is “binds”.
